Screening data, single-dose tests

Chains of the proteins cited; added tags and fusions are not shown. Residues count along the entry.
UniProt Q4DA54, 1-478: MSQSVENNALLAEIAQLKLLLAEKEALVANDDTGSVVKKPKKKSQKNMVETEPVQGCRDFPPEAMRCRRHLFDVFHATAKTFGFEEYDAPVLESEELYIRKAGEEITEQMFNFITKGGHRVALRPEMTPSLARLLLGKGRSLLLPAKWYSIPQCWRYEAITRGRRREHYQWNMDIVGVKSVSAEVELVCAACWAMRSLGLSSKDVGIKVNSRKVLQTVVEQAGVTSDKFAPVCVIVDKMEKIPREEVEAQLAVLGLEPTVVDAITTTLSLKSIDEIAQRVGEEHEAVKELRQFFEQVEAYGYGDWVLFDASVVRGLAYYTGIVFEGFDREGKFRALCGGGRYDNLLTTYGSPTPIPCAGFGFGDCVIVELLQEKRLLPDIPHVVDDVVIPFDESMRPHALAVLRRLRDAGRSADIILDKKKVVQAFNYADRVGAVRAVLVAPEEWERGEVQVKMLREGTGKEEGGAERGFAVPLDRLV
UniProt A4I591, 1-473: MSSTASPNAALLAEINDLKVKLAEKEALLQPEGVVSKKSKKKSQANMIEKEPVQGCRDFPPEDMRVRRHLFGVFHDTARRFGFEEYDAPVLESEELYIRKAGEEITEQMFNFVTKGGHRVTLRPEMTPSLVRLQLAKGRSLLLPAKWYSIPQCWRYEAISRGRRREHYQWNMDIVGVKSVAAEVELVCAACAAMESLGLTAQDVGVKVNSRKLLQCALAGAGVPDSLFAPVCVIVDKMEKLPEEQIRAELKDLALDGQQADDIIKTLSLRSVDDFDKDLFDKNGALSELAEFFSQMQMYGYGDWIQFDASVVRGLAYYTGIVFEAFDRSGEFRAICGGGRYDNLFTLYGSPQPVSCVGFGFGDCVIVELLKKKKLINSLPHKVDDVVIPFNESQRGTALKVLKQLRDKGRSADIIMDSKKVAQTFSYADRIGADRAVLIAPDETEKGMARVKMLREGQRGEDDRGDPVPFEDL
UniProt Q8IDJ8, 1-583: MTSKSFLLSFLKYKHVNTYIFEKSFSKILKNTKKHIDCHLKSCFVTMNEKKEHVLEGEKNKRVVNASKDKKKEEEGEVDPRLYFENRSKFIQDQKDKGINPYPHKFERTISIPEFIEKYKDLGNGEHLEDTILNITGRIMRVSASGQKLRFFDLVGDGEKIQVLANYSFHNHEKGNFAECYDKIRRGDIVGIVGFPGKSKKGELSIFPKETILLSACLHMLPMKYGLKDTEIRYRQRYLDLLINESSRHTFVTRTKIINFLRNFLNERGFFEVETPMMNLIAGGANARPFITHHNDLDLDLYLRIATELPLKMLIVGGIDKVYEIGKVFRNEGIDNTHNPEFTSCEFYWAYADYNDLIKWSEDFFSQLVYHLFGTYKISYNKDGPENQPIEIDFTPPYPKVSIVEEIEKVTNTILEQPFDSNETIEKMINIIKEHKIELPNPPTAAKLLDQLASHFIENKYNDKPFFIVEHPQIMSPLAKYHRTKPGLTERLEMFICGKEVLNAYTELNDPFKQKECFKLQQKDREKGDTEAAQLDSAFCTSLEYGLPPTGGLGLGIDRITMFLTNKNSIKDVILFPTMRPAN
UniProt P9WNZ1, whole entry: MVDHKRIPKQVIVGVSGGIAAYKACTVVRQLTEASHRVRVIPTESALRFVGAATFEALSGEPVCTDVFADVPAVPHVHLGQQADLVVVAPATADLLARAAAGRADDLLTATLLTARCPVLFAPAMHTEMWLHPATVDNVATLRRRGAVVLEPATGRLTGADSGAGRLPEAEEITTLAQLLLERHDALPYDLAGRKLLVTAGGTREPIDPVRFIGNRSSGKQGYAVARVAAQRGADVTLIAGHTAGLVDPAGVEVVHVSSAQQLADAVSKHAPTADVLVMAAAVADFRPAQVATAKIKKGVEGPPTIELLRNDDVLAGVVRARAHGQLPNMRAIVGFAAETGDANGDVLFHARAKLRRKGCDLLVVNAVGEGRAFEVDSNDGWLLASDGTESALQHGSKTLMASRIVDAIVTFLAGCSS

A: 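Enzyme assay of histidyl-tRNA synthetase; the read-out is not stated. Target: Histidine-tRNA ligase, Trypanosoma cruzi CL Brener (UniProt Q4DA54). Concentration: 30 µM. Higher reads as stronger inhibition (inferred: compounds with an IC50 in retests scored well above the rest). About 69,000 compounds were tested under these conditions; 0.045% (about 31) showed 50% or more at least once.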
B: 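Enzyme assay of histidyl-tRNA synthetase; the read-out is not stated. Target: Histidine-tRNA ligase, Leishmania infantum (UniProt A4I591). Tested at 30 µM. Direction is inferred from retests: higher values go with stronger inhibition. The assay is labelled LdHisRS but filed under L. infantum. About 69,000 compounds were tested under these conditions; 0.6% (about 410) showed 50% or more at least once.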
C: 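Assay of Toxoplasma gondii numbers, read through their beta-galactosidase reporter with a colour substrate. Compounds at 10 µM. The record gives no direction; the compounds picked for IC50 retests had high values, so higher reads as fewer parasites. Size under these conditions: about 67,000 compounds, about 260 of them at 50% or above in at least one test.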
D: 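Enzyme assay of the cytosolic lysyl-tRNA synthetase in 384-well plates, read by luminescence. Target: Lysine-tRNA ligase, Plasmodium falciparum 3D7 (UniProt Q8IDJ8). Concentration: 30 µM. Direction is inferred from only a few compounds that gave an IC50; most scored high, so higher reads as stronger inhibition. Of about 69,000 compounds tested this way, about 49 (0.071%) reached 50% or more in at least one test.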
E: 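Coenzyme A biosynthesis protein CoaBC, Mycobacterium tuberculosis (UniProt P9WNZ1). Enzyme assay of CoaBC with a phosphate dye (Biomol Green) read at 650 nm. Concentration: 30 µM. Direction is inferred from only a few compounds that gave an IC50; most scored high, so higher reads as stronger inhibition. Most strong results did not repeat in a second test. Size under these conditions: about 67,000 compounds, about 40 of them at 50% or above in at least one test.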

The filed quantity is “Percent Effect” (%).
The record does not define 0% and 100%; most values in the screen are far below 50% and negative numbers occur (in some assays of this library far below -100).
Compounds were drawn at random from those tested, without regard to their results.
Two or more numbers in one place are separate tests of the same structure; such repeats can differ widely.
A dash means the value is not listed here; it may have been measured.

Compound | A | B | C | D | E
CCCc1cc(NCCC2CCCOC2)n2nccc2n1 (stereo not shown) | 3.665 | 2.151 | 4.207 | -6.51 | -0.6173
O=C(COC1CCCCC1)NS(=O)(=O)c1ccc2c(c1)OCCCO2 | -0.578 | -2.632 | -2.493 | 0.5953 | 2.999
O=C1OCCN1CCc1nc(-c2cc3c4c(c2)CC(=O)N4CCC3)cs1 | 2.29 | 30.14 | 0.3176 | 2.191 | -2.892
O=C(c1ccnc(-n2cnnc2)c1)N1CCCC2(CCOC2)C1 (stereo not shown) | 14.29 | 12.4 | 7.735 | 2.174 | 4.791
CN(C)CCN1CCO[C@H]2CN(Cc3ccccn3)C[C@H]21 | 8.602 | 14.04 | - | 1.877 | -28.12
O=C(Nc1nc2c(s1)CN(S(=O)(=O)C1CC1)CC2)C1CC1 | -1.205 | 23.08 | -1.627 | 4.326 | 1.781
COc1ccc(C[C@H]2CN(c3cc(OC)ncn3)CC[C@H]2OC)cc1.O=C(O)C(F)(F)F | - | - | -1.232 | - | -
CCOc1c(CNCCCn2ccnc2)cc(Cl)cc1OC | 3.409 | 10 | - | 5.23 | -29.34
Cc1nc(C)n(CC2CCCN(CCC(=O)N3CCOCC3)C2)n1 (stereo not shown) | 6.706 | 6.195 | -18.47 | 2.642 | 4.961
Cc1cccc(CN2CCO[C@H]3[C@H](Oc4ccccn4)CC[C@@H]32)n1 | 8.824 | 17.14 | - | -0.6554 | 0.9772
Cc1cc(-c2cnn(CCNC(=O)Cc3ccccn3)c2C2CC2)on1 | 12.22 | 14.43 | 0.3517 | 4.493 | -0.4843
[H][C@@]12CCN(C(=O)CCC(C)C)C[C@]1(c1nc(C)no1)CCO2 | - | - | 8.744 | - | -
Cc1cc(S(=O)(=O)NC(C)(C)CN)c(F)cc1F.Cl | - | - | -19.33 | - | -
CC(O)CNc1ccc(C#N)cc1C(F)(F)F (stereo not shown) | 0.5848 | 2.632 | 4.518 | -2.618 | 2.02
CCN(C)c1ncnc2c1CCN(Cc1csc(C)n1)CC2.O=C(O)C(F)(F)F.O=C(O)C(F)(F)F | - | - | -0.6993 | - | -
Cc1n[nH]c(C)c1C1CCCN1C(=O)NCCSC(C)(C)C (stereo not shown) | 2.479 | 3.846 | -2.299 | 0.3362 | -4.904
Cc1nccn1C1CCCN(C(=O)c2ccc3nnc(C)n3c2)C1 (stereo not shown) | 0.578 | -4.464 | 17.39 | -1.236 | -1.405
COCCCN(C)C(=O)c1cccc(Nc2cnccn2)c1 | 5 | 23.91 | 13.49 | 2.021 | 1.453
Cc1nn(-c2ccccc2)c(C)c1-c1ccnc(N2CCCOCC2)n1 | 13.09 | 6.452 | 0.2882 | 3.065 | 7.202
CCC(=O)N1CCCC1C(=O)N1CCC(Cc2ccc(F)cc2)CC1 (stereo not shown) | 12 | 20.41 | 12.08 | 2.918 | 0.4959
CCOc1ccc(N2CCCN=C2NC(=O)c2cccc(C)c2)cc1 | 5.217 | 13.79 | 7.609 | 8.203 | -3.002
COc1cc(CN(C)[C@@H]2COC[C@H]2c2ccc(F)cc2)cc(OC)c1 | 8.475 | 18.18 | - | 2.8 | -2.663
CN(Cc1ccsc1)Cc1nc(-c2cnccn2)no1 | 1.571 | 0 | 3.285 | 6.219 | 6.79
O=C(c1ccc(F)cc1)N1CCC2(CCN(Cc3ccccn3)C2=O)C1 (stereo not shown) | 13.07 | 18.09 | - | -18.44 | 6.624
NC(=O)C1CCN(S(=O)(=O)c2cnn(-c3ccccc3)c2)CC1 | 12.3 | 6.806 | -0.6866 | 5.935 | 6.087
COc1cc(CCO)c(OC)c2c1OCO2 | 4.545 | 51.67 | 1.212 | 1.789 | -3.64
COCC(C)N1CCc2onc(-c3ccc(C(F)(F)F)cc3)c2C1 (stereo not shown) | -3.865 | 4.167 | -43.87 | -0.03464 | 1.366
CC(C)n1cnc(C2CN(C)c3ccc(C(=O)NC4CCCC4)cc32)n1 (stereo not shown) | 4.301 | 18.58 | -6.321 | -0.2717 | 1.895
CN1CCN(c2ccc3ccc(C(=O)N4CCCCO4)cn23)CC1 | 11.76 | 9.244 | - | 4.044 | -0.4878
Cc1cc(NC2CCC(=O)N(C)C2)n2nccc2n1 (stereo not shown) | 2.146 | 4.918 | 9.493 | 4.217 | -3.23
Cc1nccc(CN2CC[C@@]3(CCCN3Cc3ccccc3)[C@@H](O)C2)n1 | 14.29 | 10.14 | -10.77 | 3.842 | 2.67
CCn1ccnc1CN1CCCN(C(=O)c2cncnc2C)CC1 | 6.863 | 6.667 | 4.853 | 2.97 | -1.276
COc1ccc2c(c1)NC(=O)C2OC(=O)CCc1ccc(F)cc1 (stereo not shown) | 8.333 | 11.71 | 7.386 | 4.583 | -0.3891
COCCC(=O)NCc1ccc(-c2ccccc2C(=O)O)nc1 | 6 | 16.11 | 9.197 | 1.925 | 26.48 and 7.732
Cc1noc(C)c1CN1CC[C@@H]2O[C@H](COCC(C)C)CC[C@@H]21 | 5.473 | 27.78 | - | 4.465 | 1.613
CCn1ncc(S(=O)(=O)NC2(CN3CCOCC3)CCCCC2)c1C | 5.323 | 8.966 | -4.067 | 2.659 | 1.607
CCc1cc(=O)[nH]c2nnc(SCC(=O)N3CCC(C)CC3)n12 | 7.772 | 21.51 | 2.879 | 2.526 | 6.846
CC(C)OC(=O)N1CCC(c2nnc(Cn3ccnc3)n2C)CC1 | -2.01 | -3.191 | 12 | -0.5622 | 3.716
O=C(O)C(F)(F)F.O=C(O)C(F)(F)F.O=C(O)C(F)(F)F.[H][C@@]12CN(Cc3cccnc3)C[C@]1([H])[C@H](OC)CCN2c1ncc(F)cn1 | - | - | -11.02 | - | -
O=C(O)C(F)(F)F.[H][C@@]12C[C@@H](Oc3cncnc3)CN1CCN(C(=O)Cc1cccc(F)c1)C2 | - | - | 5.911 | - | -
CC(C#N)(NC(=O)c1ccc(C#N)cc1)C1CC1 (stereo not shown) | 0.4425 | 15.04 | 11.49 | 5.396 | -0.2336
Cc1nn(C2CCCC2)c2nc(C(C)(C)CN3CCN(C)CC3)[nH]c12 | 0 | 12.94 | 2.462 | 2.685 | -0.9709

Some entries from above, unchanged:

For CCn1ncc(S(=O)(=O)NC2(CN3CCOCC3)CCCCC2)c1C the result was A: 5.323%; B: 8.966%; C: -4.067%; D: 2.659%; E: 1.607%.
For O=C(COC1CCCCC1)NS(=O)(=O)c1ccc2c(c1)OCCCO2 the result was A: -0.578%; B: -2.632%; C: -2.493%; D: 0.5953%; E: 2.999%.
For CCOc1c(CNCCCn2ccnc2)cc(Cl)cc1OC the result was A: 3.409%; B: 10%; D: 5.23%; E: -29.34%.

The values are deposited in ChEMBL (CHEMBL3988442, “University of Dundee, Small-Polar-MMV Screening Library” (2021)).